Results taken from article doi:10.1101/2024.02.28.582502, “Magnesium Transporter MgtA revealed as a Dimeric P-type ATPase” (bioRxiv, 2024).
No constants are given. Whether binding was seen depends on the method and setting. For some of these results: In cells and extracts the contact can be indirect. Some entries that bind do so weakly or less than the wild type. For some of these results: Sequences can lack the tags named with a protein. One block for each binder: values may come before it.

How the values were obtained:
[1] = molecular target: T1, Escherichia coli magnesium transporter MgtA (from pETDuet-1-MgtAS, co-overexpressed with MgtS) (Escherichia coli) (UniProt P0ABB8); assay: native gel or EMSA; Blue Native-PAGE (4-16% BisTris) of membranes (10 mg/mL) solubilised with 1% GDN for 16 h at 4°C; blot with anti-FLAG or anti-His6x
T1 sequence: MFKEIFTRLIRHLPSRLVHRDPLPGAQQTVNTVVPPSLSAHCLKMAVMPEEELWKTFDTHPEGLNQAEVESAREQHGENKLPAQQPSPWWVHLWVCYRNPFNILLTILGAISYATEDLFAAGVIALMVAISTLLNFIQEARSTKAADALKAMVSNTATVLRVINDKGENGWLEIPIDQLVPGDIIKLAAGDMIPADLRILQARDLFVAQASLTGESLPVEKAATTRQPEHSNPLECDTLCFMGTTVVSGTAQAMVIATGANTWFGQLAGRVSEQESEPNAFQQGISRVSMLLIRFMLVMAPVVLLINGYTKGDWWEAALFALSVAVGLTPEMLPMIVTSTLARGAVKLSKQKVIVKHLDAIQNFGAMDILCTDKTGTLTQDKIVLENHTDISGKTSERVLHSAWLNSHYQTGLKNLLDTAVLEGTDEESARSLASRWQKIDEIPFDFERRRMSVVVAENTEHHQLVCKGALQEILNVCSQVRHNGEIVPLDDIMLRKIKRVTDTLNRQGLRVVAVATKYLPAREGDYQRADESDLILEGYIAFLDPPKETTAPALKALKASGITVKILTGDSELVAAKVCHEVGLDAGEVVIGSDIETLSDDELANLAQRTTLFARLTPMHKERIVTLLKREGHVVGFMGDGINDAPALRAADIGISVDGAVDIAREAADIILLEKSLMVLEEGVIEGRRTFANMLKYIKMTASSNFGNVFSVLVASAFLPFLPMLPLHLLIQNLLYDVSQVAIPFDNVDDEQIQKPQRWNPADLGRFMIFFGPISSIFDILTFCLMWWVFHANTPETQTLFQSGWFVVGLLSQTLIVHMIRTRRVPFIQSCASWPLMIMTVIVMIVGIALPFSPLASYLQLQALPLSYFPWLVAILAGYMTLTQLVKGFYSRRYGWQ

[2] = molecular target: T1, Escherichia coli magnesium transporter MgtA (from pETDuet-1-MgtAS, co-overexpressed with MgtS) (Escherichia coli); assay: condition: only membranes solubilised with 1% DDM or 1% LMNG; native gel or EMSA; Blue Native-PAGE (4-16% BisTris) of membranes (10 mg/mL) solubilised with 1% DDM or 1% LMNG for 16 h at 4°C; blot with anti-FLAG or anti-His6x
[3] = molecular target: MgtA co-expressed as two differently tagged copies, MgtA-H6 (pBAD24-MgtA-H6) and MgtA-SPA (pACYC-MgtA-SPA) (Escherichia coli) (UniProt P0ABB8); assay: co-IP; MgtA-SPA held on FLAG resin from membranes solubilised with 1% GDN, 4°C; eluted with 0.2 M glycine pH 2.4; Western blot with polyclonal anti-MgtA
[4] = molecular target: T1, Escherichia coli magnesium transporter MgtA (from pETDuet-1-MgtAS, co-overexpressed with MgtS) (Escherichia coli); assay: native gel or EMSA; Blue Native-PAGE (4-16% BisTris) of membranes (10 mg/mL) solubilised with 1% DDM or 1% LMNG for 16 h at 4°C; blot with anti-FLAG or anti-His6x

binding [1]: binds
binding [2]: no binding
Binder: MLGNMNVFMAVLGIILFSGFLAAYFSHKWDD (peptide, UniProt A5A616 1-31) [31-amino acid MgtS protein of E. coli (co-overexpressed with MgtA from pETDuet-1-MgtAS)]

binding [3]: binds
B1: MgtA co-expressed as two differently tagged copies, MgtA-H6 (pBAD24-MgtA-H6) and MgtA-SPA (pACYC-MgtA-SPA) (protein, UniProt P0ABB8 1-898)
chain: T1 sequence

B2: Escherichia coli magnesium transporter MgtA (from pETDuet-1-MgtAS, co-overexpressed with MgtS) (natural protein)
chain: T1 sequence
notes: MgtA, E. coli, P-type ATPase Mg2+ transporter, 100 kDa, 898 amino acids; residues from the N-terminal tail (1-36) on are modelled in the dimer structure; That the His tag stands on MgtA is inferred from its elution from Ni-NTA; also called EcMgtA; MgtAS (the purified sample); source: E. coli C43 (DE3), pETDuet-1-MgtAS, co-overexpressed with MgtS; membranes solubilised with 1% GDN (or DDM, LMNG); …
binding [4]: no binding (condition: solubilised with DDM)
